{"sequences": {"note": "By UniProt entry, the sequences of proteins in these tests, tags left out. Where a name states a change or a piece, a line headed by the entry shows the natural chain unless it says otherwise.", "UniProt P18054": "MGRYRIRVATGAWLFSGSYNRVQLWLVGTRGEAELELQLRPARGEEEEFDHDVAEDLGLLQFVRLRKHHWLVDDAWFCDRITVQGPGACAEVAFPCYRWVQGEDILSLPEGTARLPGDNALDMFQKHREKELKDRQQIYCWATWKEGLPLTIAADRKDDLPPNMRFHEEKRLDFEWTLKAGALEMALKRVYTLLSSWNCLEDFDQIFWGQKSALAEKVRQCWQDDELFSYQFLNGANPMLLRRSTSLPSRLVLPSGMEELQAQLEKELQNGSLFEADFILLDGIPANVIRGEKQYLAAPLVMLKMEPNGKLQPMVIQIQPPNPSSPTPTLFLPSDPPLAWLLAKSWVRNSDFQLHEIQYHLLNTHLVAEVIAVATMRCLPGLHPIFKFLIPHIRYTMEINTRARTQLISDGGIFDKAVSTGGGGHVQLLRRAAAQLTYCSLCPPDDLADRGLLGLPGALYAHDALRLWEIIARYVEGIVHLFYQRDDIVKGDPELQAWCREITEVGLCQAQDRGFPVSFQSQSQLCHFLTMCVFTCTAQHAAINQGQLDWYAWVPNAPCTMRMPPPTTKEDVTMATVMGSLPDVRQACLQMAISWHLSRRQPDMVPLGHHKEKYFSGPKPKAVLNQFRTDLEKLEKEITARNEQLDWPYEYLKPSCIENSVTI"}, "source": "PubChem BioAssay AID1671190", "about": "(National Center for Advancing Translational Sciences (NCATS), 2021)", "note": "About 6,100 (1.1%) of roughly 580,000 compounds were called active. This list was built around the results that the source calls inconclusive (neither active nor inactive); the mix of calls is not that of the screen. Calls follow the shape of the dose curve; as a rule, active = well fitted inhibition curve with a large enough effect; inconclusive = small, poorly fitted or top-dose-only effect, or another doubt; inactive = no such curve, though single readings can be large or run the other way. A potency beside an inconclusive call is a rough fit, not a confirmed value.", "data": [{"target": "Polyunsaturated fatty acid lipoxygenase ALOX12 (Homo sapiens) (UniProt P18054)", "experiment": "Primary qHTS assay for inhibitors of human arachidonate 12S-lipoxygenase (ALOX12): Round 2; also: potency is read from the fitted curve at half-maximal effect; as to activity change, negative = inhibition: % is scaled to controls: 0 for no effect and ±100 for the full control effect", "details": "purified 12hLO, xylenol orange hydroperoxide absorbance; activity change, negative = inhibition: at 108 µM (top of the series) unless noted", "summary_of_the_method": "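Purified human 12hLO at 150 nM in 25 mM Hepes, 0.01% Triton X-100, pH 7.0, preincubated 15 min at room temperature with compound. Reaction started with 40 uM arachidonic acid, 30 min at room temperature. Hydroperoxide measured by Fe-xylenol orange, 573/405 nm absorbance ratio.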", "values": [{"compound": "O=C(N/N=C/c1cc(Br)ccc1O)C(c1ccncc1)N1CCOCC1", "note": "(configuration not stated)", "activity change, negative = inhibition": "inactive: -5.89%"}, {"compound": "CC(C)CCN(C(=S)Nc1cccc(F)c1)C1CCN(C(C)C)CC1", "Potency": "inconclusive: 100 µM [inhibitor, single point]"}, {"compound": "Cc1cc(C(F)F)nn1Cc1nc2c3c4c(sc3ncn2n1)CC(C)CC4", "note": "(configuration not stated)", "activity change, negative = inhibition": "inactive: 61.9%"}, {"compound": "O=C(Nc1ccccc1Br)N1CCN(S(=O)(=O)c2ccccc2)CC1", "Potency": "inconclusive: 11.2 µM [inhibitor, full curve, poor fit]"}, {"compound": "N#CCc1nn(Cc2ccc(F)cc2)c(=O)c2ccccc12", "Potency": "inconclusive: 89.1 µM [inhibitor, partial curve, poor fit]"}, {"compound": "O=C(Nc1sc2c(c1C(=O)O)CCCC2)c1ccc(F)cc1", "Potency": "inconclusive: 17.8 µM [inhibitor, full curve, poor fit]"}, {"compound": "N#CC1=C(N)Oc2cc3ccccc3cc2C1c1cccs1", "note": "(configuration not stated)", "Potency": "inconclusive: 50.1 µM [inhibitor, partial curve, poor fit]"}, {"compound": "O=C1CN2Cc3c(ccc(Cl)c3Cl)N=C2N1", "Potency": "inconclusive: 21.7 µM [inhibitor, partial curve, poor fit]"}, {"compound": "COc1cccc(C2C(C#N)=C(N)Oc3cc(C)n(Cc4ccco4)c(=O)c32)c1", "note": "(configuration not stated)", "Potency": "inconclusive: 44.7 µM [inhibitor, partial curve, poor fit]"}, {"compound": "O=C(CN1CCN(C(=O)CCc2ncc(-c3ccc(Cl)cc3)o2)CC1)Nc1cccc(F)c1", "activity change, negative = inhibition": "inactive: -19.2%"}, {"compound": "O=C(NCCN1C(=O)S/C(=C\\c2ccc(Cl)c(Cl)c2)C1=O)C1COc2ccccc2O1", "note": "(configuration not stated)", "Potency": "inconclusive: 50.1 µM [inhibitor, partial curve, poor fit]"}, {"compound": "CN(CCOC(=O)c1cccc(Br)c1)C(C)(C)C", "Potency": "inactive"}, {"compound": "CC(=O)Nc1ccc(SC2CCCC2)cc1", "Potency": "inconclusive: 28.2 µM [inhibitor, single point]"}, {"compound": "CCOC(=O)CC(NC(=O)c1cc2cc(Cl)ccc2oc1=O)c1ccccc1Cl", "note": "(configuration not stated)", "activity change, negative = inhibition": "inactive: 47.4%"}, {"compound": "CC(=O)Nc1ccc(NC(=S)NC(=O)C2CCCC2)cc1", "Potency": "inconclusive: 89.1 µM [inhibitor, partial curve, poor fit]"}, {"compound": "O=C(CCl)Nc1cc2[nH]c(=O)[nH]c2cc1Br", "activity change, negative = inhibition": "inactive: 1.79%"}, {"compound": "O=[N+]([O-])/C(C(Cl)=C(Cl)Cl)=C(\\Sc1ccccc1)N1CCCCC1", "Potency": "inconclusive: 31.6 µM [inhibitor, partial curve, poor fit]"}, {"compound": "Oc1c(C(c2ccc(F)cc2)N2CCOCC2)sc2nc(-c3ccco3)nn12", "note": "(configuration not stated)", "Potency": "inconclusive: 50.1 µM [inhibitor, partial curve, poor fit]"}, {"compound": "Cc1c(OCC(=O)N[C@@H](Cc2c[nH]c3ccccc23)C(=O)O)ccc2c1oc(=O)c1ccccc12", "Potency": "inconclusive: 39.8 µM [inhibitor, partial curve, poor fit]"}, {"compound": "C=CCn1c(C)cc(C(=O)CSc2ccc(NC(C)=O)cc2)c1C", "Potency": "inconclusive: 112 µM [inhibitor, single point]"}, {"compound": "Cc1cc(C)cc(N2CC(c3nc(-c4cccc(Cl)c4)no3)CC2=O)c1", "note": "(configuration not stated)", "Potency": "inconclusive: 158 µM [inhibitor, partial curve, poor fit]"}, {"compound": "Cc1ccc(CNCc2ccccc2)s1", "Potency": "inconclusive: 70.8 µM [inhibitor, partial curve, poor fit]"}, {"compound": "CCc1ocnc1C(=O)N1CC[C@@](O)(C2CCOCC2)[C@H](C)C1", "activity change, negative = inhibition": "inactive: 15.5%"}, {"compound": "O=C1Nc2ccccc2CC12CN(Cc1c[nH]c3ccccc13)C2", "Potency": "inconclusive: 35.5 µM [inhibitor, partial curve, poor fit]"}, {"compound": "COc1ccc2c(c1)nc(SCC(=O)c1ccc(Br)s1)n2C", "Potency": "inconclusive: 5.01 µM [inhibitor, full curve, poor fit]"}, {"compound": "Cc1nn(Cc2ccc(Cl)cc2)c(=O)n1N(C)c1ncc(C(F)(F)F)cc1Cl", "Potency": "inconclusive: 12.6 µM [inhibitor, partial curve, poor fit]"}, {"compound": "CCOc1ccccc1NC(=O)C1C2CCC(O2)C1C(=O)O", "note": "(configuration not stated)", "Potency": "inconclusive: 6.31 µM [inhibitor, full curve]"}, {"compound": "COc1ccc(-n2ccc(=O)c(C(=O)O)n2)cc1", "Potency": "inconclusive: 39.8 µM [inhibitor, partial curve, poor fit]"}, {"compound": "COc1ccccc1C(C[N+](=O)[O-])c1c(N)n(C)c(=O)n(C)c1=O", "note": "(configuration not stated)", "Potency": "inconclusive: 126 µM [inhibitor, single point]"}, {"compound": "O=C1C(Nc2ccccc2)=CC(c2ccc(Br)cc2)N1c1ccccc1", "note": "(configuration not stated)", "Potency": "inconclusive: 39.8 µM [inhibitor, partial curve, poor fit]"}, {"compound": "O=[N+]([O-])c1ccc(NN=C2CC3CCC2C3)c([N+](=O)[O-])c1", "note": "(configuration not stated)", "Potency": "inconclusive: 44.7 µM [inhibitor, partial curve, poor fit]"}, {"compound": "CC1Oc2ccc(NC(=O)Cc3ccccc3)cc2CN(Cc2ccc(F)cc2)C1=O", "note": "(configuration not stated)", "Potency": "inconclusive: 44.7 µM [inhibitor, partial curve, poor fit]"}, {"compound": "CCOC(=O)c1oc2ccccc2c1COC(=O)CNC(=O)c1cccc(C)c1", "Potency": "inconclusive: 50.1 µM [inhibitor, partial curve, poor fit]"}, {"compound": "COc1ccccc1CN1CCN(C/C=C/c2ccccc2)CC1", "Potency": "inconclusive: 0.316 µM [inhibitor, full curve, poor fit]"}, {"compound": "CCOC(=O)c1[nH]c(C)c(C(=O)OCC(=O)NCc2ccc(OC)c(OC)c2)c1C", "Potency": "inconclusive: 63.1 µM [inhibitor, partial curve, poor fit]"}, {"compound": "CCOC(=O)c1sc(/N=C/c2c(O)ccc3ccccc23)cc1C", "activity change, negative = inhibition": "inactive: -22.1%"}, {"compound": "Cc1cc(C)cc(NC(=S)NCc2cccs2)c1", "Potency": "inconclusive: 44.7 µM [inhibitor, partial curve, poor fit]"}, {"compound": "Oc1oc(-c2ccco2)nc1C=Nc1ccccc1", "activity change, negative = inhibition": "inactive: -26.9%"}, {"compound": "O=C(O)CCCC(=O)N1CCN2C(=O)c3cc(-c4ccco4)ccc3NC(=O)[C@@H]2C1", "Potency": "inconclusive: 70.8 µM [inhibitor, partial curve]"}, {"compound": "Cc1cc(C(F)F)n2nc(C(=O)Nc3c(F)cc(F)cc3Br)nc2n1", "Potency": "inconclusive: 11.2 µM [inhibitor, partial curve, poor fit]"}, {"compound": "Oc1ccc(/C=N/N2CCN(C3c4ccccc4-c4ccccc43)CC2)c(O)c1", "Potency": "inconclusive: 7.08 µM [inhibitor, full curve]"}, {"compound": "CN1CCC(NC[C@H]2O[C@@H](CO)[C@@H](O)[C@H]2N2CCOCC2)CC1", "Potency": "inconclusive: 17.8 µM [inhibitor, partial curve, poor fit]"}, {"compound": "Cc1[nH][nH]c(=O)c1N=Nc1ccc(F)cc1", "Potency": "inconclusive: 63.1 µM [inhibitor, partial curve, poor fit]"}, {"compound": "CCOC(=O)c1[nH]nc2c1C(=O)N(Cc1ccccc1)C2=O", "Potency": "inconclusive: 25.1 µM [inhibitor, single point]"}, {"compound": "O=C(Cc1cccc2ccccc12)Nc1cccc2ncccc12", "Potency": "inconclusive: 79.4 µM [inhibitor, single point]"}, {"compound": "COc1ccc(-c2cc3c(ccn3C(C)C)c(C(=O)NCc3c(C)cc(C)[nH]c3=O)n2)cc1", "Potency": "inconclusive: 17.8 µM [inhibitor, full curve, poor fit]"}, {"compound": "Cc1ccc(/C=C/S(=O)(=O)NCC(=O)O)cc1", "activity change, negative = inhibition": "inactive: -27.2%"}, {"compound": "CCC1Nc2ncnc(N3CCN(c4ccccc4)CC3)c2N(Cc2ccc(OC)cc2)C1=O", "note": "(configuration not stated)", "Potency": "inconclusive: 50.1 µM [inhibitor, partial curve, poor fit]"}, {"compound": "Cn1cc(C(=O)CN2C(=O)COc3ccc(Cl)cc32)c2ccccc21", "Potency": "inconclusive: 89.1 µM [inhibitor, partial curve, poor fit]"}, {"compound": "CCN(CC)C(=O)c1noc2c1CC(C(C)(C)C)CC2", "note": "(configuration not stated)", "Potency": "inconclusive: 89.1 µM [inhibitor, single point]"}, {"compound": "O=S(=O)(NC1CC1)c1ccc(S(=O)(=O)N2CCCc3ccccc32)cc1", "Potency": "inconclusive: 0.398 µM [inhibitor, full curve, poor fit]"}, {"compound": "Cc1ccc(C2CCCN2C(=O)c2cc(-c3cccs3)on2)cc1", "note": "(configuration not stated)", "Potency": "inconclusive: 44.7 µM [inhibitor, partial curve, poor fit]"}, {"compound": "COc1ccc2[nH]cc(CCNc3ncncc3-c3ccccc3C(F)(F)F)c2c1", "Potency": "inconclusive: 56.2 µM [inhibitor, partial curve, poor fit]"}, {"compound": "N#Cc1ccc(S(=O)(=O)N2CCCCC2C(=O)N2CCCC2)cc1", "note": "(configuration not stated)", "Potency": "inconclusive: 79.4 µM [inhibitor, single point]"}, {"compound": "O=C(O)C1=C[C@@H](c2ccccc2)C[C@@H](OCCCCO)O1", "Potency": "inconclusive: 7.94 µM [inhibitor, full curve]"}, {"compound": "CCOC(=O)c1c(NC(=O)CSc2ncccn2)sc2c1CCN(Cc1ccccc1)C2", "activity change, negative = inhibition": "inactive: -18.8%"}, {"compound": "CCNC(=O)CSc1nc2ccccc2c(=O)n1-c1cc(OC)ccc1OC", "activity change, negative = inhibition": "inactive: -1.13%"}, {"compound": "CC12CCC(=O)N1C(C(=O)Nc1ccc(Cl)c(Cl)c1)CS2", "note": "(configuration not stated)", "Potency": "inconclusive: 126 µM [inhibitor, partial curve, poor fit]"}, {"compound": "COc1cc(-c2cccs2)cc(=O)c2c(C)oc(C)c12", "Potency": "inconclusive: 1.78 µM [inhibitor, full curve]"}, {"compound": "CCOc1ccc(CNC(=O)c2ccc(NC(=O)c3nnc(C)s3)cc2)cc1OC", "Potency": "inconclusive: 56.2 µM [inhibitor, partial curve, poor fit]"}, {"compound": "C[C@H](CO)N1C[C@H](C)[C@@H](CN(C)S(=O)(=O)c2cccs2)Oc2ccc(NS(=O)(=O)c3ccccc3)cc2CC1=O", "Potency": "inconclusive: 1.58 µM [inhibitor, full curve, poor fit]"}, {"compound": "CCN(CC)c1ccc(CN2CCCCCC2)cc1", "Potency": "inconclusive: 50.1 µM [inhibitor, partial curve, poor fit]"}]}]}
